A short description of the data set: physchem. Particulars: simulated gi fluid.

Here are results for two compounds from ChEMBL document CHEMBL4819115, “Discovery of potent and selective reversible Bruton's tyrosine kinase inhibitors” (Bioorg Med Chem, 2021).

In brackets after ≈: the same amount, converted by molar mass.

For the compound `Cc1nn(C(C)C)cc1-c1nc2c(-c3ccc4c(c3)CCC[C@@H]4NC(=O)c3nc(C(C)(C)C)no3)ccnc2[nH]1`, the solubility (as a rule, the dissolved amount per volume that the medium holds) is 7 µg/mL (≈ 13 µM).

`Cc1nn(C(C)C)c(C)c1-c1nc2nccc(-c3ccc4c(c3)CCCC[C@H]4NC(=O)c3nc(C(C)(C)C)no3)c2[nH]1` yielded a solubility of 33 µg/mL (≈ 58.2 µM).
